The assay has as its target T1, splicing factor 3a subunit 3 (SF3A3) (human (endogenous in A549 and H1650)) (UniProt Q12874).
T1 sequence: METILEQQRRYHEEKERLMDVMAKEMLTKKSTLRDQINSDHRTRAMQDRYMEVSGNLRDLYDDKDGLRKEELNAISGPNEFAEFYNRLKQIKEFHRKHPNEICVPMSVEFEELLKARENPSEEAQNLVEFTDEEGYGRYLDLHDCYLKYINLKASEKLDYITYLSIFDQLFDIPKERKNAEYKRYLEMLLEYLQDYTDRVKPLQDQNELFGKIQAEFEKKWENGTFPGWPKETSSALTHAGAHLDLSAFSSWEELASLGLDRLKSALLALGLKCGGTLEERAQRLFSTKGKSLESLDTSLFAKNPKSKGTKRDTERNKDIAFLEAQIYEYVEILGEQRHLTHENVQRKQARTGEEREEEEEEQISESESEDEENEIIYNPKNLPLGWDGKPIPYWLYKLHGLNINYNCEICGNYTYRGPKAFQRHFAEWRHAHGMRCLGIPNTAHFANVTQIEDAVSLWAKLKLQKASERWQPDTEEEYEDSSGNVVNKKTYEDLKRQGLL
Briefly: co-IP; lysates of NSCLC cells (A549, H1650) in Pierce IP Lysis Buffer, primary antibody with protein A/G magnetic beads at 4 °C overnight, 6 washes, immunoblot; also done on cells with circSCAP overexpression or SF3A3 siRNA (less complex, put down to the lower SF3A3 level).

Chains of the proteins cited; added tags and fusions are not shown.
UniProt O14744: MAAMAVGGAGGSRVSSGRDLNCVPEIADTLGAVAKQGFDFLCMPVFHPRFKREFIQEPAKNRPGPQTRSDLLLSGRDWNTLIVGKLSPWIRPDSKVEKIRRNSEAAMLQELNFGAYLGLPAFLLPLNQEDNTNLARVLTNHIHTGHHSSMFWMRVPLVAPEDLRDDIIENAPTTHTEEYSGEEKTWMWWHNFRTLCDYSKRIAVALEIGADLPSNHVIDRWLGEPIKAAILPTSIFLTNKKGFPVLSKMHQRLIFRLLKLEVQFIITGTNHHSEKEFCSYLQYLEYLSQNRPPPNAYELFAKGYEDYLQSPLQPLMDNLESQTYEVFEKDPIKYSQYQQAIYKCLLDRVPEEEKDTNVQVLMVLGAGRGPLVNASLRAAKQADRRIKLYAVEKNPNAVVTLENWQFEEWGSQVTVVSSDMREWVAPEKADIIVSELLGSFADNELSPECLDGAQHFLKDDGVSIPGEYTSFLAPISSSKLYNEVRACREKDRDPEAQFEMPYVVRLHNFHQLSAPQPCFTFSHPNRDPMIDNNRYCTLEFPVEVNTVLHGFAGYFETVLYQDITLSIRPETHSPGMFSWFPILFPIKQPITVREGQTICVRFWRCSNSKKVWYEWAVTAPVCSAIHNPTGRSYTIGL

No constants are given. Whether binding was seen depends on the method and setting. In cells and extracts the contact can be indirect. Some results given as binding are weak or reduced against the parent protein; the word gives no strength.

Consider one substance from article PMC8973551.

In the case of “protein arginine methyltransferase 5 (PRMT5) (from UniProt O14744 1-637)”, the binding result is recorded as “binds”.
